Where a name gives a salt, the structure may show the parent alone. The list shows a part of the results. The calls rarely recur for the same compound in another form.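 Kinases were expressed as nanoluciferase fusions in K562 cells and luminescence was read every 4 h between 2 and 18 h as percent of control, DMSO set to 100% and a positive control to 0%. A time point counts as decreased when the signal drops significantly (2 sigma). The hit call is the authors' own, does not follow from the count of time points alone, and its rule is not shown.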
target: PTK2B (UniProt Q14289); assay: kinase-Nluc reporter destabilization hit call (1 = scored as downregulated) (binary); higher = compound decreases kinase abundance; conditions: K562; 2-18 h

Protein sequences, listed by entry. Tags and fused reporters are not part of them.
UniProt Q14289, whole entry, looked up: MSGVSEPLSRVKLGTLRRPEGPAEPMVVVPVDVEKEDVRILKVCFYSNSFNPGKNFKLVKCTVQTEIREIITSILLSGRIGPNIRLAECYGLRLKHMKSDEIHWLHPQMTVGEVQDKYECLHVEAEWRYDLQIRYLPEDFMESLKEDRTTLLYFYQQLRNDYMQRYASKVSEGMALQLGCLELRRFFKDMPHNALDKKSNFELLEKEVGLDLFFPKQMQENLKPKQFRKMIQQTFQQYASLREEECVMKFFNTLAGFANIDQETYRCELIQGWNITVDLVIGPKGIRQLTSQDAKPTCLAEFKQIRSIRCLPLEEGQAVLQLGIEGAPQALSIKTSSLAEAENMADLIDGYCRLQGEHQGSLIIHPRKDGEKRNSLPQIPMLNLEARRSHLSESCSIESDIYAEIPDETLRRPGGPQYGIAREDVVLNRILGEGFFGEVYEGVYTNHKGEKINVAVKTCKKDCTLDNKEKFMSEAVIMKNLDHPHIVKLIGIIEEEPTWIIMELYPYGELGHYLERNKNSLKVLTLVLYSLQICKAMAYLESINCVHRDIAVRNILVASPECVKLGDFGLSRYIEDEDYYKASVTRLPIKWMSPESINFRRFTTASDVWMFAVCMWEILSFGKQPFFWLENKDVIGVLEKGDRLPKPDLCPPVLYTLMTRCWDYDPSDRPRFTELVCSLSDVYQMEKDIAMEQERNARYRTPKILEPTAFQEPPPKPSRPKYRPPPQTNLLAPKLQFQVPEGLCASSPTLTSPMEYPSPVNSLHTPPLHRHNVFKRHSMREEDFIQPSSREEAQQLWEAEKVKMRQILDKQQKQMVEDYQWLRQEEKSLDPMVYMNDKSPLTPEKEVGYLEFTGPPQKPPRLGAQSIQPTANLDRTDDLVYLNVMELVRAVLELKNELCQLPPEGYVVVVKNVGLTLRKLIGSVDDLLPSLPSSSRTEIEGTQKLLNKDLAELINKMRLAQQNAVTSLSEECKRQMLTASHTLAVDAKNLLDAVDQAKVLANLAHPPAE

| Structure (SMILES) | kinase-Nluc reporter destabilization hit call |
| --- | --- |
| CCS(=O)(=O)c1ncc(Cl)c(C(=O)N(Cc2ccc(Cl)cc2)Cc2ccco2)n1 (2.5 µM) | inactive: 0 |
| Nc1cc(C(F)(F)F)c(-c2cc(N3CCOCC3)nc(N3CCOCC3)n2)cn1 [Buparlisib (Hydrochloride)] (2.5 µM) | inactive: 0 |
| COc1cc(Nc2ncc(F)c(Nc3ccc4c(n3)N(COP(=O)(O)O)C(=O)C(C)(C)O4)n2)cc(OC)c1OC [Fostamatinib Disodium] (10 µM) | inactive: 0 |
| CC(C)(O)CNc1ncc(-c2ccnc(Nc3ccnc(Cl)c3)n2)c(CC2CC2)n1 (2.5 µM) | inactive: 0 |
| O=Nc1c(-c2c(O)[nH]c3ccc(I)cc23)[nH]c2ccccc12 [5-Iodo-indirubin-3'-monoxime] (10 µM) | inactive: 0 |
| Cc1cc(Nc2ncnc3ccc(NC4=NC(C)(C)CO4)cc23)ccc1Oc1ccn2ncnc2c1 [Tucatinib] (2.5 µM) | inactive: 0 |
| CCS(=O)(=O)Nc1ccc2[nH]c(O)c(C(=Nc3ccc(CN4CCCCC4)cc3)c3ccccc3)c2c1 [Hesperadin] (2.5 µM) | inactive: 0 |
| COc1cc2c(cc1OC)CN(S(=O)(=O)c1ccc(OC)c(N3CCN(C(=O)c4ccc(F)cc4C(F)(F)F)CC3)c1)CC2 (10 µM) | inactive: 0 |
| O=C([O-])c1cc2ccccc2c(Cc2c(O)c(C(=O)[O-])cc3ccccc23)c1O.[Na+].[Na+] [Pamoic acid (disodium)] (10 µM) | inactive: 0 |
| Cn1cc(-c2ccc3nnc(Sc4ccc5ncccc5c4)n3n2)cn1 (10 µM) | inactive: 0 |
| Cc1cc(O)c2c(c1)C(=O)c1cc(O)cc(O)c1C2=O [Emodin] (10 µM) | inactive: 0 |
| COc1cc2c(N3CCN(C(=O)Nc4ccc(OC(C)C)cc4)CC3)ncnc2cc1OCCCN1CCCCC1 [Tandutinib (hydrochloride)] (10 µM) | inactive: 0 |
| CCC(C)N1c2ccccc2C(=O)N(C)c2cnc(Nc3ccc(C(=O)N4CCC(N5CCN(C)CC5)CC4)cc3OC)nc21 (stereo not given) (2.5 µM) | inactive: 0 |
| NS(=O)(=O)c1ccc(-n2nc(C(F)(F)F)cc2-c2ccc(Cl)cc2)cc1 (10 µM) | inactive: 0 |
| Cc1c(NC(=O)c2cccn(-c3ccc(F)cc3)c2=O)ccc(Oc2ccnc(NC(=O)C3CC3)c2)c1C (2 µM) | inactive: 0 |
| c1ccc(-c2[nH]ncc2-c2ccnc3ccccc23)nc1 (10 µM) | inactive: 0 |
| CN(C)CCCOc1ccc(-c2ccc3ncc4c(c3c2)n(C2CCOCC2)c(=O)n4C)cn1 (2 µM) | inactive: 0 |
| OCCn1cc(-c2ccc3c(c2)CC/C3=N\O)c(-c2ccncc2)n1 (10 µM) | inactive: 0 |

| Structure (SMILES) | kinase-Nluc reporter destabilization hit call |
| --- | --- |
| FC(F)(c1ccc2ncccc2c1)c1nnc2ccc(-c3ccncc3)nn12 (10 µM) | inactive: 0 |
| O=C1NC(=O)/C(=C\c2cccc(C(F)(F)F)c2)S1 (2.5 µM) | inactive: 0 |
| N#CCC1CCN(c2nc(Nc3ccc(N4CCC(O)CC4)cc3)c3c(=O)[nH]ncc3n2)CC1 [Gusacitinib] (10 µM) | inactive: 0 |
| Nc1ncnc2c1c(-c1cccc(OCc3ccccc3)c1)cn2C1CC(CN2CCC2)C1 (stereo not given) (2.5 µM) | inactive: 0 |
| CCNc1nc(Nc2cc(F)c(C(=O)N3CCOCC3)cc2OC)ncc1C(F)(F)F [GNE-7915 (tosylate)] (10 µM) | inactive: 0 |
| Cn1cnc2c(F)c(Nc3ccc(Br)cc3Cl)c(C(=O)NOCCO)cc21 [Selumetinib] (10 µM) | inactive: 0 |
| CCN1CCN(Cc2ccc(-c3cc4c(N[C@H](C)c5ccccc5)ncnc4[nH]3)cc2)CC1 (2.5 µM) | inactive: 0 |
| O=C(N/N=C/c1coc2ccccc2c1=O)c1cccnc1 (10 µM) | inactive: 0 |
| O=Nc1c(-c2c(O)[nH]c3ccc(F)cc23)[nH]c2ccccc12 [5'-Fluoroindirubinoxime] (10 µM) | inactive: 0 |
| CC(=O)NC1CC(n2cnc(NC(=O)Cc3ccc4ccccc4c3)c2)C1 (stereo not given) (10 µM) | inactive: 0 |
| O=C(CSC1=NCCN1)NC1CCCCCC1 [ICCB-19 (hydrochloride)] (2.5 µM) | inactive: 0 |
| N#Cc1c(C2CCNCC2)cc(-c2c(O)cccc2OCC2CC2)nc1N [ACHP (Hydrochloride)] (10 µM) | inactive: 0 |
| CCOC(=O)N1CCN(C(=O)[C@H](Cc2cccc(C(=N)N)c2)NS(=O)(=O)c2c(C(C)C)cc(C(C)C)cc2C(C)C)CC1 (10 µM) | inactive: 0 |
| CN1CCN(c2cnc3c(C4CCN(C(=O)c5ccc(OC(F)(F)F)cc5N)CC4)ncnc3c2)CC1 (10 µM) | inactive: 0 |
| Cc1[nH]c(/C=C2\C(=O)Nc3ccccc32)c(C)c1CCC(=O)O [Orantinib] (10 µM) | inactive: 0 |
| Cn1nccc1Nc1nccc(-c2ccn([C@H](CO)c3ccc(Cl)c(F)c3)c(=O)c2)n1 [Ravoxertinib hydrochloride] (10 µM) | inactive: 0 |
| CCCCCCCCCCCCC/C=C/[C@@H](O)[C@@H](N)CO [D-erythro-Sphingosine] (2.5 µM) | inactive: 0 |

Random excerpt: 2 compounds from above

| Structure (SMILES) | kinase-Nluc reporter destabilization hit call |
| --- | --- |
| CCOC(=O)N1CCN(C(=O)[C@H](Cc2cccc(C(=N)N)c2)NS(=O)(=O)c2c(C(C)C)cc(C(C)C)cc2C(C)C)CC1 (10 µM) | inactive: 0 |
| N#CCC1CCN(c2nc(Nc3ccc(N4CCC(O)CC4)cc3)c3c(=O)[nH]ncc3n2)CC1 [Gusacitinib] (10 µM) | inactive: 0 |
